Test results: US6399568B1 (Japan Energy Corporation, priority 1997, dated 2002)

Legend:
[1] = general procedure: peptide synthesis; oxime resin (OxR); DCC/HOBt; HATU (cyclisation, double coupling); BOP
[2] = Boc solid-phase peptide synthesis; oxime resin; DCC/HOBt; HATU (cyclisation, double coupling); BOP; conditions: whole synthesis

Which step yield ([1]; late stage modification step) does the source give for cyclo(-L-Asu(NHOH)-D-Phe-L-Phe-L-Pro-) here?
The step yield was 10%.

Which step yield ([1]; late stage modification step) does the source give for “H-L-Ile-L-Pro-L-Asu(OBzl)-D-Tyr(Me)-OH TFA” here?
The step yield was 90%.

For “Boc-D-Tyr(Me)-L-Ile-D-Pro-L-Glu(Gly-OBzl)-OAll”, which step yield ([1]; coupling step) is on record?
The step yield was 79%.

Which step yield ([1]; coupling step) does the source give for “Boc-L-Asu(OBzl)-L-Lys(Z)-L-Phe-D-Pro-OtBu” here?
The step yield was 72%.

Which isolated yield [2] does the source give for “cyclo(-L-Asu(NHOH)-D-Tyr(Me)-L-Ile-L-Pro-)” here?
The isolated yield was 50%.

For cyclo(-L-Asu(OBzl)-D-Phe-L-Phe-L-Pro-), which crude yield [2] is on record?
Its crude yield is 38%.

For Boc-Asu(OBzl)-Phe-Phe-D-Pro-OtBu, which step yield ([1]; coupling step) is on record?
The step yield was 80%.

Which step yield ([1]; coupling step) does the source give for Boc-L-Ala-D-Ala-Asu(OBzl)-D-Pro-OtBu here?
Its step yield is 69%.

Which step yield ([1]; late stage modification step) does the source give for H-Asu(OBzl)-Phe-Phe-D-Pro-OH.TFA here?
Its step yield is 90%.

Which step yield ([1]; late stage modification step) does the source give for cyclo(-Asu(OH)-Phe-Phe-D-Pro-) here?
Its step yield is 91%.

Which step yield ([1]; late stage modification step) does the source give for cyclo(-L-ASu-L-LyS(Boc)-L-Phe-D-Pro-) here?
Its step yield is 74%.

Which cyclisation yield ([1]; cyclisation step) does the source give for cyclo(-Asu(OBzl)-Phe-Phe-D-Pro-) here?
The cyclisation yield was 84%.

For cyclo(-L-Lys(BrAc)-L-Phe-L-Phe-D-Pro-), which step yield ([1]; late stage modification step) is on record?
The step yield was 62%.
